Experimental data reported in the supplement of paper PMC10849652.
This is one part of the list.

Amino acid sequences for entries named in this document (tags omitted). A change or cut given only in a name is not applied to a line headed by its entry.
UniProt Q96GU1: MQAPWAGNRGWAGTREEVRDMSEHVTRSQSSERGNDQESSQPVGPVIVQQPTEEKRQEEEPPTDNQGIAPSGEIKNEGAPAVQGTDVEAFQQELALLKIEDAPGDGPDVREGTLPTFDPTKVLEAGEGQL
UniProt P30101, whole entry, looked up: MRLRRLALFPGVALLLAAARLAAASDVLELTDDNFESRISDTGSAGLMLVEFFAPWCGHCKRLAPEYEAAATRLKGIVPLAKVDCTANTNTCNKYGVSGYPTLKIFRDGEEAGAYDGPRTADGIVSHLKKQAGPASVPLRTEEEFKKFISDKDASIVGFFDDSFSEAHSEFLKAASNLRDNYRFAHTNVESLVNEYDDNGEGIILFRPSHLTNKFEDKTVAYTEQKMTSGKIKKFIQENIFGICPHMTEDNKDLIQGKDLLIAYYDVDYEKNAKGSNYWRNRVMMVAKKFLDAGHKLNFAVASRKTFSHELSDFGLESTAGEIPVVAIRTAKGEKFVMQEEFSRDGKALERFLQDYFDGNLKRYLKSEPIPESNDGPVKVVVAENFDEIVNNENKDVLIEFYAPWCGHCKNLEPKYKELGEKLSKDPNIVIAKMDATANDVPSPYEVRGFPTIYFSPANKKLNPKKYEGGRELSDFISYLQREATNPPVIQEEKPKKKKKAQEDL
UniProt Q96RG2: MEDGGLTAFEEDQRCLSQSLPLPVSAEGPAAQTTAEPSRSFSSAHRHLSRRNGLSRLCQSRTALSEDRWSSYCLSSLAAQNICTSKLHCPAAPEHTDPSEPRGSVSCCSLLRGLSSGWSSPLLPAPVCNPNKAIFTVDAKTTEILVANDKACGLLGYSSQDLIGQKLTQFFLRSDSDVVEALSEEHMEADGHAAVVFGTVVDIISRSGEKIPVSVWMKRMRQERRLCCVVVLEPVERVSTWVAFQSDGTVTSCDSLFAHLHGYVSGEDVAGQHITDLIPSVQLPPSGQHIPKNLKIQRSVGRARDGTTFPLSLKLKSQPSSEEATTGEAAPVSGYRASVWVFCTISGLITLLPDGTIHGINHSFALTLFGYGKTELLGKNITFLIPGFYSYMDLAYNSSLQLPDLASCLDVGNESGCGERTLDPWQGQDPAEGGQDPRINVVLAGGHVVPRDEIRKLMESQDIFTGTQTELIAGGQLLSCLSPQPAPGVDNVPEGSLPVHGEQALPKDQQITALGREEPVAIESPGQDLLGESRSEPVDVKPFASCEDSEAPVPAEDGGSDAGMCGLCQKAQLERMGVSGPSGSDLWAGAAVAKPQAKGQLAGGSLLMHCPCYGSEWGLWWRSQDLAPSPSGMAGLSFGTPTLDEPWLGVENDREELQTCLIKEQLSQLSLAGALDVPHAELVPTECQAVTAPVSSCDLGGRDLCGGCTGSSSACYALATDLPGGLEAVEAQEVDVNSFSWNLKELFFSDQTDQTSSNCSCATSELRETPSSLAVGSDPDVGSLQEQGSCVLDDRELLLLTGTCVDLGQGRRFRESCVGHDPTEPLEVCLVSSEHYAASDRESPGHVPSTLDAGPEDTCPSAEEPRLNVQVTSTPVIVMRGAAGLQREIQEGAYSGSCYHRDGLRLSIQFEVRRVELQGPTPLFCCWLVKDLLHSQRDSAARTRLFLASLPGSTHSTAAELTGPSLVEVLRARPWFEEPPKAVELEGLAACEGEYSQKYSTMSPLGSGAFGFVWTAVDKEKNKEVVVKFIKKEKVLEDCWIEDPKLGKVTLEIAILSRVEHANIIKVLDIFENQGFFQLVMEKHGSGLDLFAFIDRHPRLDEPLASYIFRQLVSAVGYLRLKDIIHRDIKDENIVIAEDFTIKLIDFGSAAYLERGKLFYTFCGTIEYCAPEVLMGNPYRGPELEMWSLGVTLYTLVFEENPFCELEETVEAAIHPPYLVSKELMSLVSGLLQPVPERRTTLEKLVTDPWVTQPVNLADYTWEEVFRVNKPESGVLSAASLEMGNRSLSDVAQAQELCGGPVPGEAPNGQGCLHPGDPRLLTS
UniProt P12004, whole entry, looked up: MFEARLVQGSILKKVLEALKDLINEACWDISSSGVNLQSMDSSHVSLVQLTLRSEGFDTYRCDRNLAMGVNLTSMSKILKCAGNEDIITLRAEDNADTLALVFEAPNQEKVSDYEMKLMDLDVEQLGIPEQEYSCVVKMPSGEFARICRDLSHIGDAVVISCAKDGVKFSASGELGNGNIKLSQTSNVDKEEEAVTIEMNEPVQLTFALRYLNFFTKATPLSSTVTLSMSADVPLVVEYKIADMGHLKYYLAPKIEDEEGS
UniProt Q15004: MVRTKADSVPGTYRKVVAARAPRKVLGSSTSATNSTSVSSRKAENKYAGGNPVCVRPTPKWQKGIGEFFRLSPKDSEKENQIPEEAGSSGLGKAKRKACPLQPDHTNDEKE
UniProt Q13153, whole entry, looked up: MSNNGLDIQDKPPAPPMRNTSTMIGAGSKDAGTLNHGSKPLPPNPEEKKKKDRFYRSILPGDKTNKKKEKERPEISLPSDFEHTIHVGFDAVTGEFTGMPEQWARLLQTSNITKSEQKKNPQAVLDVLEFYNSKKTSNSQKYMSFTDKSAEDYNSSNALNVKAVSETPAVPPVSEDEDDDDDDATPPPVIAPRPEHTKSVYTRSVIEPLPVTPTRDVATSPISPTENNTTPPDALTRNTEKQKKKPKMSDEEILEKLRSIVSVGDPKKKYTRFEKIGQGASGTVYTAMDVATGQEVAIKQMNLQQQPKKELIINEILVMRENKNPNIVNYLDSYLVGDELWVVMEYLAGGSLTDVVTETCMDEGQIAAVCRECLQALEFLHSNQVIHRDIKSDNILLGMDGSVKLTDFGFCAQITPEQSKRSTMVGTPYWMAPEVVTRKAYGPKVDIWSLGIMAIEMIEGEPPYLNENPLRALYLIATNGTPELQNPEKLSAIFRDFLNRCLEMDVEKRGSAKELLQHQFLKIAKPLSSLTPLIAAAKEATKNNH
UniProt Q29RF7: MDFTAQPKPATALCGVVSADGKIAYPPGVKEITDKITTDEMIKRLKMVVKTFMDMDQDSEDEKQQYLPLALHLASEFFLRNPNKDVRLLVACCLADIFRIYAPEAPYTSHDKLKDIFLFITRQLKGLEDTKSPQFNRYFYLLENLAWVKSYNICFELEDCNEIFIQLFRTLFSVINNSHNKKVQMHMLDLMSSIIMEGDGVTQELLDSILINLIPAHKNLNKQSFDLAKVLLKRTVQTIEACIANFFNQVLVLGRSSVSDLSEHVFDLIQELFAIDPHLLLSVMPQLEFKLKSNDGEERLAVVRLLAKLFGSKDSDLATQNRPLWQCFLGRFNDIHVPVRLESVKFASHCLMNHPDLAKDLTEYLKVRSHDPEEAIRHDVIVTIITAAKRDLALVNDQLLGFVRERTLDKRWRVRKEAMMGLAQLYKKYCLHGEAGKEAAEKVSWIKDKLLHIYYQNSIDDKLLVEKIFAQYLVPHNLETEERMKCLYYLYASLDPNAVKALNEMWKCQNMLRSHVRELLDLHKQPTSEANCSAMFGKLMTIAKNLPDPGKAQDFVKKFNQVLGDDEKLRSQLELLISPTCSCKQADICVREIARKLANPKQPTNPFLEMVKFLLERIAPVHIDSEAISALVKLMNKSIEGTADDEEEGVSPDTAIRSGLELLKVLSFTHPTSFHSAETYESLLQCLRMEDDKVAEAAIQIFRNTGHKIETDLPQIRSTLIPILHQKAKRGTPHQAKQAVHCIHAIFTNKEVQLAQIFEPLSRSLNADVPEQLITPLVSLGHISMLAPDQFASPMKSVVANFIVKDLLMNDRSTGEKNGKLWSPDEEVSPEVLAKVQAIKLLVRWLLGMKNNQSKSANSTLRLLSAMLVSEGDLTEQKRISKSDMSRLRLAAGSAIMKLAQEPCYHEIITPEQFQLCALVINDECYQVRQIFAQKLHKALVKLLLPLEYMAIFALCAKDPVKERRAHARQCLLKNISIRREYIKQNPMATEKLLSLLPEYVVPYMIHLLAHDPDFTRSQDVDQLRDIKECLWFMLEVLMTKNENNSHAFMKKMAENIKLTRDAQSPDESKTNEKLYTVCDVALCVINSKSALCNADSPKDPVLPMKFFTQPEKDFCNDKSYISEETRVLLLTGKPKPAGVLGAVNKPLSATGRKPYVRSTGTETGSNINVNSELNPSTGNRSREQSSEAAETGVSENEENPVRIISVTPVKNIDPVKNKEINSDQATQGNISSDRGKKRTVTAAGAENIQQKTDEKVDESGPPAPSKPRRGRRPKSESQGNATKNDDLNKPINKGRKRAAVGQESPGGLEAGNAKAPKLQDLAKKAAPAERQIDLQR
UniProt P12955: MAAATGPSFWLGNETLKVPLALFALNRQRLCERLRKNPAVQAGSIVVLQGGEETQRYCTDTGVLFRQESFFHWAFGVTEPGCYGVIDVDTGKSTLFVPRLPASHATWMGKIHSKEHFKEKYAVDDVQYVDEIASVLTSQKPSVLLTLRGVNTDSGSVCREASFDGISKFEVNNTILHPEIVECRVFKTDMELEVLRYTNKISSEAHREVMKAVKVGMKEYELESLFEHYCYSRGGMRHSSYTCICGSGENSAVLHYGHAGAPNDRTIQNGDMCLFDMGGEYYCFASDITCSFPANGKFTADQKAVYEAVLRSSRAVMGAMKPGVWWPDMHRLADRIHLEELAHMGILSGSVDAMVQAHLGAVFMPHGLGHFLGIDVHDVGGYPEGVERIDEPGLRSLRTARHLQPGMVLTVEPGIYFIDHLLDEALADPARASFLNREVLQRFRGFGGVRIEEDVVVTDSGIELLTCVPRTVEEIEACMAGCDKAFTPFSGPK
UniProt Q9HBI1: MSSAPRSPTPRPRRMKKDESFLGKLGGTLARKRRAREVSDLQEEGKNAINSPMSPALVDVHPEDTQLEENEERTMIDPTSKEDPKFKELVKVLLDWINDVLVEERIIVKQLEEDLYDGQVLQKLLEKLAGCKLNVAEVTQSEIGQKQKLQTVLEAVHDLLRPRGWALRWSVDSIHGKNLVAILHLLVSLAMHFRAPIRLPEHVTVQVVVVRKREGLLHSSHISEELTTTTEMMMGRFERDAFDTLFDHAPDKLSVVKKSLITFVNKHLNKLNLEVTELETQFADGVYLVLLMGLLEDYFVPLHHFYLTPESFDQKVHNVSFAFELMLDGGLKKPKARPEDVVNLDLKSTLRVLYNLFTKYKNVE
UniProt O75340: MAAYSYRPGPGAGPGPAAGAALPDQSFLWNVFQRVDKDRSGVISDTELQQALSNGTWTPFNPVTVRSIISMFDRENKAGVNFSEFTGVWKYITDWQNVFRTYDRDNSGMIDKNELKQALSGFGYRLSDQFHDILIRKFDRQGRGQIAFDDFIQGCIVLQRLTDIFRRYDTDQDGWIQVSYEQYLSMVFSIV
UniProt P11498: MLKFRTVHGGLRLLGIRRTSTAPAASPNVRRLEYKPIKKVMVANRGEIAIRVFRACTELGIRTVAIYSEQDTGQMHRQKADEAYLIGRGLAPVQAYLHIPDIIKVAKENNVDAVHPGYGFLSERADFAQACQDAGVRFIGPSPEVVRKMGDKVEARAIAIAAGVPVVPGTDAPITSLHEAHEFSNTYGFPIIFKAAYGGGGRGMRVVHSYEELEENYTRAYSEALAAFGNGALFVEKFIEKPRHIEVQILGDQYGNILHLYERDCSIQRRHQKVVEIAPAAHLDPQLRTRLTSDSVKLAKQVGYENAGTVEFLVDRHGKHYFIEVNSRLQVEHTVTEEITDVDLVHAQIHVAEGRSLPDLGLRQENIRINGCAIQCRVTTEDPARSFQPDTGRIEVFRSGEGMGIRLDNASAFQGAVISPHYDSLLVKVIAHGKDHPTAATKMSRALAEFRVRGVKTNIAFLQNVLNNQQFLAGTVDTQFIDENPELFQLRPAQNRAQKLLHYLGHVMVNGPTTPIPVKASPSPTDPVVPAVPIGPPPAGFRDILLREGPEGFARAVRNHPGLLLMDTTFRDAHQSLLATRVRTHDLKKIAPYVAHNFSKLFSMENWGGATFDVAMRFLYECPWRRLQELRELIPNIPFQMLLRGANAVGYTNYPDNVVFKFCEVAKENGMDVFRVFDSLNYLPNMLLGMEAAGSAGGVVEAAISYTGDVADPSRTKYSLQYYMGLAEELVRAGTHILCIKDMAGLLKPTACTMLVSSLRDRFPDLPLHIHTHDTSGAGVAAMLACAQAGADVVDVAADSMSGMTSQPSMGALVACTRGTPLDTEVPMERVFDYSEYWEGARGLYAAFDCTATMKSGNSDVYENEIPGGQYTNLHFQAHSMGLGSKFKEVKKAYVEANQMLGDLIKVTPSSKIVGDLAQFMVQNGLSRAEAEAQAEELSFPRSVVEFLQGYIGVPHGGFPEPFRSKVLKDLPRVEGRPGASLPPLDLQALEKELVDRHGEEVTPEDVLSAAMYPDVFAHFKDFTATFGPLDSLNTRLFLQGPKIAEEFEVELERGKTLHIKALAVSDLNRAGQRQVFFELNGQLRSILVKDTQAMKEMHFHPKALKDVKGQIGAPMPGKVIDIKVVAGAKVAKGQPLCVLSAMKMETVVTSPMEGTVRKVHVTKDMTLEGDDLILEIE
UniProt Q9NUG6, whole entry, looked up: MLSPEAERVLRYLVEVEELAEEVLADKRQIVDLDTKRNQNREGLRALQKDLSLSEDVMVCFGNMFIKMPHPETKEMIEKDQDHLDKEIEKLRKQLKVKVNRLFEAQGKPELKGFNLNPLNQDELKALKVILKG

Tests used:
Test in all cases: log2 fold change, soluble protein after heating vs DMSO (PISA); higher = thermal stabilisation; K562 cells, 10 uM, 30 min; active = over 0.2 and 3.5 SD of the protein, either way, in both replicates (recomputed)
[1] = compound: C#Cc1cccc(Nc2ncnc3cc(OCCOC)c(OCCOC)cc23)c1 [erlotinib]
Method in brief: (§1)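 Soluble protein was defined as the supernatant after 21,000xg for 90 min. It came from K562 cells at 2×10^6 cells/mL given 10 μM compound for 30 min, heated in aliquots for 3 min across 48°C-58°C, pooled, and extracted in PBS with 0.5% NP-40 at 4°C, and was quantified by TMTpro 16plex LC-MS/MS with equalised channel sums. Thermal stability against control samples, from duplicates, is reported as log2 fold change.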

[2] = compound: C/C(=N\NC(=O)C1=CC(=CC=C1)S(=O)(=O)N2CCOCC2)/C3=C(C=CC(=C3)Cl)O
Method in brief: as §1

[3] = compound: C1=CC(=C(C=C1Cl)C2=NC3=NC=CN=C3C(=N2)NC4=CC=NC=C4)F
Method in brief: as §1

[4] = compound: C1=CC(=CC=C1C2=NC3=C(N2)C=C(C=C3)C(=O)N)OC4=CC=C(C=C4)Cl
Method in brief: as §1

[5] = compound: C1=CC2=C(C=CC(=C2)/C=C\3/C(=O)NC(=NCC4=CC=CS4)S3)N=C1
Method in brief: as §1

[6] = compound: C1=CC2=NC=CN=C2C=C1/C=C/3\C(=O)NC(=O)S3
Method in brief: as §1

[7] = compound: C1=CC=C(C=C1)C2=NC(=C(N2)C3=CC=NC=C3)C4=CC(=C(C=C4)Cl)O
Method in brief: as §1

[8] = compound: C1=CC=C2C(=C1)C3=NNC4=CC=CC(=C43)C2=O
Method in brief: as §1

[9] = compound: C1CCN(C1)C(=O)NC2=CC=CC(=C2)NC3=NC=C(C(=N3)NCCC4=CN=CN4)Br
Method in brief: as §1

[10] = compound: C1CN(CCC1(CC2=CC=C(C=C2)Cl)N)C3=NC=NC4=C3C=CN4
Method in brief: as §1

Measured: log2 fold change

PAGE5 (UniProt Q96GU1)
inactive: [1] -0.208 | [2] -0.114 | [3] 0.136 | [4] 0.024 | [5] 0.017 | [6] 0.182 | [7] 0.055 | [8] -0.031 | [9] -0.007 | [10] -0.271

PDIA3 (UniProt P30101)
inactive: [1] -0.083 | [2] -0.04 | [3] -0.049 | [4] 0.002 | [5] -0.111 | [6] -0.019 | [7] 0.004 | [8] 0.047 | [9] -0.005 | [10] -0.05

PEX1 (UniProt O43933)
inactive: [1] 0.013 | [2] 0.017 | [3] 0.038 | [4] 0.038 | [5] 0.02 | [6] 0 | [7] 0.028 | [8] -0.032 | [9] -0.046 | [10] 0.023

PDE4DIP isoform 4 (UniProt Q5VU43)
inactive: [1] 0.027 | [2] -0.002 | [3] 0.186 | [4] 0.01 | [5] 0.089 | [6] -0.043 | [7] -0.059 | [8] -0.02 | [9] -0.037 | [10] -0.061

2 records picked at random from the list so far, as already listed:
PAGE5 (UniProt Q96GU1)
inactive: [1] -0.208 | [2] -0.114 | [3] 0.136 | [4] 0.024 | [5] 0.017 | [6] 0.182 | [7] 0.055 | [8] -0.031 | [9] -0.007 | [10] -0.271

PDE4DIP isoform 4 (UniProt Q5VU43)
inactive: [1] 0.027 | [2] -0.002 | [3] 0.186 | [4] 0.01 | [5] 0.089 | [6] -0.043 | [7] -0.059 | [8] -0.02 | [9] -0.037 | [10] -0.061

Additional records follow:

PASK (UniProt Q96RG2)
inactive: [1] 0.045 | [2] 0.136 | [3] 0.046 | [4] -0.006 | [5] 0.022 | [6] 0.059 | [7] -0.033 | [8] 0.024 | [9] 0.055 | [10] 0.034

PDAP1 (UniProt Q13442)
inactive: [1] 0.012 | [2] -0.073 | [3] 0.047 | [4] 0.032 | [5] 0.015 | [6] 0.018 | [7] 0.024 | [8] -0.001 | [9] 0.054 | [10] 0.026

PDLIM5 (UniProt Q96HC4)
inactive: [1] -0.004 | [2] 0.032 | [3] 0.066 | [4] -0.016 | [5] 0.004 | [6] -0.007 | [7] 0.022 | [8] -0.012 | [9] -0.027 | [10] 0.057

PARK7 (UniProt Q99497)
inactive: [1] 0.013 | [2] 0.072 | [3] 0.072 | [4] -0.02 | [5] -0.06 | [6] -0.038 | [7] 0.136 | [8] 0.041 | [9] -0.059 | [10] 0.055

PBXIP1 (UniProt Q96AQ6)
inactive: [1] -0.006 | [2] -0.051 | [3] -0.026 | [4] 0.02 | [5] 0.028 | [6] 0.049 | [7] -0.023 | [8] 0.017 | [9] -0.055 | [10] 0.002

PEA15 isoform 2 (UniProt Q15121)
inactive: [1] 0.001 | [2] 0.042 | [3] 0.056 | [4] 0.026 | [5] -0.014 | [6] 0.055 | [7] -0.006 | [8] 0.072 | [9] 0.016 | [10] -0.064

PANK1 (UniProt Q8TE04)
inactive: [1] -0.049 | [2] -0.044 | [3] 0.01 | [4] 0.058 | [5] 0.028 | [6] -0.101 | [7] -0.013 | [8] -0.052 | [9] -0.017 | [10] 0.017

PAXIP1 (UniProt Q6ZW49)
inactive: [1] -0.034 | [2] 0.118 | [3] 0.014 | [4] 0.004 | [5] -0.129 | [6] -0.065 | [7] 0.255 | [8] 0.038 | [9] 0.007 | [10] 0.091

PELP1 (UniProt Q8IZL8)
inactive: [1] 0.082 | [2] 0.044 | [3] -0.035 | [4] 0.008 | [5] -0.032 | [6] -0.008 | [7] 0.007 | [8] -0.053 | [9] -0.041 | [10] 0.08

PCNA (UniProt P12004)
inactive: [1] -0.016 | [2] 0.017 | [3] 0.026 | [4] 0.003 | [5] -0.006 | [6] -0.006 | [7] 0.015 | [8] 0.014 | [9] 0.03 | [10] 0.018

PCLAF (UniProt Q15004)
inactive: [1] 0.073 | [2] -0.017 | [3] -0.066 | [4] 0.016 | [5] -0.039 | [6] 0.033 | [7] -0.105 | [8] -0.13 | [9] -0.036 | [10] 0.032

PCSK9 (UniProt Q8NBP7)
inactive: [1] -0.033 | [2] -0.02 | [3] -0.054 | [4] -0.047 | [5] 0.013 | [6] 0.037 | [7] 0.028 | [8] -0.003 | [9] -0.027 | [10] 0.032

PAK1 isoform 2 (UniProt Q13153)
inactive: [1] 0.063 | [2] 0.105 | [3] 0.067 | [4] -0.013 | [5] 0.009 | [6] 0.086 | [7] 0.027 | [8] -0.008 | [9] 0.014 | [10] 0.083

PDLIM4 (UniProt P50479)
inactive: [1] 0.06 | [2] -0.001 | [3] 0.025 | [4] -0.018 | [5] 0.068 | [6] 0.046 | [7] -0.022 | [8] -0.037 | [9] -0.055 | [10] 0.049

PDPK1 (UniProt O15530)
inactive: [1] 0.02 | [2] 0.083 | [3] 0.026 | [4] 0.064 | [5] 0.068 | [6] -0.029 | [7] 0.045 | [8] 0.007 | [9] 0.087 | [10] 0.028

PDS5A (UniProt Q29RF7)
inactive: [1] 0.225 | [2] 0.132 | [3] 0.04 | [4] -0.227 | [5] 0.05 | [6] -0.176 | [7] 0.14 | [8] 0.108 | [9] -0.25 | [10] -0.267

PDIA6 isoform 2 (UniProt Q15084)
inactive: [1] -0.01 | [2] -0.054 | [3] 0.035 | [4] -0.041 | [5] -0.046 | [6] 0.013 | [7] -0.014 | [8] 0.006 | [9] 0.024 | [10] 0.049

PEPD (UniProt P12955)
inactive: [1] -0.037 | [2] 0.052 | [3] 0.043 | [4] 0.042 | [5] 0.07 | [6] -0.008 | [7] -0.002 | [8] 0.015 | [9] 0.016 | [10] 0.017

PDIA5 (UniProt Q14554)
inactive: [1] -0.07 | [2] -0.046 | [3] -0.043 | [4] -0.002 | [5] -0.039 | [6] 0.002 | [7] 0.02 | [8] -0.005 | [9] -0.006 | [10] -0.063

PARVB (UniProt Q9HBI1)
inactive: [1] -0.006 | [2] 0.057 | [3] 0.012 | [4] 0.074 | [5] 0.032 | [6] 0.032 | [7] 0.056 | [8] -0.006 | [9] -0.009 | [10] 0.032

PDCD6 (UniProt O75340)
inactive: [1] -0.006 | [2] 0.038 | [3] 0.066 | [4] 0.004 | [5] 0.034 | [6] 0.02 | [7] -0.061 | [8] 0.029 | [9] 0.024 | [10] -0.048

PDCD2L (UniProt Q9BRP1)
inactive: [1] -0.051 | [2] 0.226 | [3] 0.128 | [4] 0.03 | [5] 0.006 | [6] -0.03 | [7] -0.078 | [8] -0.001 | [9] -0.071 | [10] -0.036

PDCD4 (UniProt Q53EL6)
inactive: [1] 0.107 | [2] -0.041 | [3] 0.14 | [4] -0.051 | [5] 0.16 | [6] 0.145 | [7] 0.072 | [8] 0.108 | [9] 0.024 | [10] 0.027

PC (UniProt P11498)
inactive: [1] -0.037 | [2] 0.101 | [3] 0.117 | [4] 0.056 | [5] 0.047 | [6] -0.042 | [7] 0.042 | [8] 0.031 | [9] -0.022 | [10] 0.012

PBX2 (UniProt P40425)
inactive: [1] 0.111 | [2] 0.076 | [3] 0.055 | [4] 0.007 | [5] 0.009 | [6] -0.039 | [7] 0.091 | [8] -0.098 | [9] -0.036 | [10] -0.269

PDRG1 (UniProt Q9NUG6)
inactive: [1] -0.006 | [2] -0.032 | [3] -0.033 | [4] 0.013 | [5] -0.019 | [6] 0.037 | [7] 0.141 | [8] -0.051 | [9] -0.045 | [10] -0.098
